PubChem BioAssay AID1159578 | Peter MacCallum Cancer Centre, 2015
Assay: 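Knock-downs that alter how fast lymphatic endothelial cells migrate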 (primary screen). Cell system: human lymphatic endothelial cells. Reagent: siRNA pool against human genes, 40 nM. Timing: 48 h after transfection. Measurement: 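High-content imaging of dye-stained cells in a scratch assay measures filled wound area and nuclei per well; duplicate means given as ratio to mock and robust z-score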. Reading the numbers: migration robust z-score: higher = faster migration into the scratch; nuclei per well: higher = more cells in the well. Call rule: 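Pools averaging fewer than 3300 nuclei are never called; remaining pools count as changed when migration robust z lies outside -2 to 2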. Meaning of the calls: active = migration changed; inactive = no migration change, or too few cells.
The whole screen tested about 18,000 reagents; this is a random part of them. Of all reagents, about 1,030 (5.7%) got an active call. 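Inactive calls also include pools with fewer than 3300 nuclei, whose migration was not assessed.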 Raw values are not corrected between plates. Not all columns of the deposit are shown. Reagent sequences are not shown.

With knock-down of HSPE1 (heat shock protein family E (Hsp10) member 1) [SID255350345] the results were migration robust z-score 0.93; migration class with cell-count check migration z between -2 and 2; enough cells; nuclei per well, duplicate mean 6134; inactive. Against PLSCR1 (phospholipid scramblase 1) [SID255351643] the deposit lists migration robust z-score -0.94; migration class with cell-count check migration z between -2 and 2; enough cells; nuclei per well, duplicate mean 5605; inactive. For HS3ST4 (heparan sulfate-glucosamine 3-sulfotransferase 4) [SID255354693] the deposit lists migration robust z-score -0.05; migration class with cell-count check migration z between -2 and 2; enough cells; nuclei per well, duplicate mean 4514; inactive. After knock-down of ENKD1 (enkurin domain containing 1) [SID255361188] the results were migration robust z-score -0.28; migration class with cell-count check migration z between -2 and 2; enough cells; nuclei per well, duplicate mean 6472; inactive. KIF2B (kinesin family member 2B) [SID255361437] gave migration robust z-score 0; migration class with cell-count check migration z between -2 and 2; enough cells; nuclei per well, duplicate mean 6086; inactive. ELAPOR2 [SID255364336] showed migration robust z-score 1.14; migration class with cell-count check migration z between -2 and 2; enough cells; nuclei per well, duplicate mean 7514; inactive.

Against CHP2 (calcineurin like EF-hand protein 2) [SID255359778], the entry reads migration robust z-score -0.1; migration class with cell-count check migration z between -2 and 2; enough cells; nuclei per well, duplicate mean 5285; inactive. For LYPLA2 (lysophospholipase 2) [SID255355741] the deposit lists migration robust z-score -4.09; migration class with cell-count check migration z below -2; enough cells; nuclei per well, duplicate mean 6261; active. UQCRC2 (ubiquinol-cytochrome c reductase core protein 2) [SID255353076] scored migration robust z-score 0.16; migration class with cell-count check migration z between -2 and 2; enough cells; nuclei per well, duplicate mean 5853; inactive. Knock-down of ESX1 (ESX homeobox 1) [SID255360784] resulted in: migration robust z-score 0; migration class with cell-count check migration z between -2 and 2; enough cells; nuclei per well, duplicate mean 6484; inactive. For KLK2 (kallikrein related peptidase 2) [SID255350654], the values are migration robust z-score 0.39; migration class with cell-count check migration z between -2 and 2; enough cells; nuclei per well, duplicate mean 4726; inactive. Silencing of ROBO3 (roundabout guidance receptor 3) [SID255359876] came out at: migration robust z-score 0.22; migration class with cell-count check migration z between -2 and 2; enough cells; nuclei per well, duplicate mean 6673; inactive.

Silencing of LRRFIP2 (LRR binding FLII interacting protein 2) [SID255354115] gave: migration robust z-score 1.1; migration class with cell-count check migration z between -2 and 2; enough cells; nuclei per well, duplicate mean 5832; inactive. P2RX7 (purinergic receptor P2X 7) [SID255351387] showed migration robust z-score 0.96; migration class with cell-count check migration z between -2 and 2; enough cells; nuclei per well, duplicate mean 5128; inactive.

2 entries from above, ordered by “migration robust z-score”, highest first:
HS3ST4 (heparan sulfate-glucosamine 3-sulfotransferase 4) [SID255354693] — migration robust z-score = -0.05; migration class with cell-count check = migration z between -2 and 2; enough cells; nuclei per well, duplicate mean = 4514; Call = inactive
ENKD1 (enkurin domain containing 1) [SID255361188] — migration robust z-score = -0.28; migration class with cell-count check = migration z between -2 and 2; enough cells; nuclei per well, duplicate mean = 6472; Call = inactive
